From PubChem BioAssay AID328 (DTP/NCI, 2004)
The list does not hold the whole screen: it gathers tests that were run many times, whatever their T/C, doses with no T/C, and many T/C values between a quarter and a half above the control. Other doses and runs of a compound stand elsewhere. T/C is the treated group as % of the vehicle group. Some entries give survivors of the animals treated and no T/C: the source holds a T/C of zero for them, seemingly a mark for toxic or unscored doses. Some survivor counts are full or nearly so, which does not show that the dose was tolerated: survival well below the control is almost never listed, so the zero probably covers shortened survival too. Survivors were counted at the toxicity check, usually on the fifth day, unless a day is given; later deaths do not show. Schedule codes are those of the source, read here as Q, the interval in days (D) or hours (H), X, the number of doses. Where survival is the endpoint, this PubChem deposit counts one and a half times the control or more as active, and values a quarter to a half above the control carry no call in these data; other NCI protocols may use other cut-offs. Some doses were run more than once; the values are given in rising order. Some T/C values are followed by the survivors on the day toxicity was checked, most often the fifth; without a count, all were alive then. Non-standard residues stand in square brackets, D forms with d. Residues, ends and D or L forms follow the SMILES beside them. ξ: configuration not given here. *: point of attachment. Nphe = O=C(O)CNCc1ccccc1; ξF = NC(Cc1ccccc1)C(=O)O; Ms = CS(=O)(=O)*

Tested on: BDF1 mice, P388 leukemia ip, median survival T/C
Assay: NCI In Vivo Anticancer Drug Screen. Data for tumor model P388 Leukemia (intraperitoneal) in B6D2F1 (BDF1) mice
Conditions: T/C endpoint: median survival time, higher T/C = longer survival
Procedure, shortened: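 Read-out is survival of treated animals expressed relative to the vehicle group, as a T/C ratio.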

[1] = dose: 5.0 mg/kg/injection, schedule: Q01DX009 (ip), vehicle: saline
[2] = dose: 50.0 mg/kg/injection, schedule: Q01DX009 (ip), vehicle: saline with Tween-80
[3] = dose: 400.0 mg/kg/injection, schedule: Q04DX003 (ip), vehicle: saline with Tween-80
[4] = dose: 200.0 mg/kg/injection, schedule: Q01DX009 (ip), vehicle: saline with Tween-80
[5] = dose: 400.0 mg/kg/injection, schedule: Q04DX003 (ip), vehicle: saline

c1ccc([P+](c2ccccc2)(c2ccccc2)c2ccccc2)cc1
T/C (dose: 0.15 mg/kg/injection, schedule: Q01DX009 (ip), vehicle: saline): 127 % of control
T/C (dose: 0.31 mg/kg/injection, schedule: Q01DX009 (ip), vehicle: saline): 136 % of control
T/C (dose: 0.66 mg/kg/injection, schedule: Q01DX009 (ip), vehicle: saline): 125 % of control
T/C (dose: 1.0 mg/kg/injection, schedule: Q01DX009 (ip), vehicle: saline): 133 % of control
survivor count (dose: 1.25 mg/kg/injection, schedule: Q01DX009 (ip), vehicle: saline): 1 of 6
survivor count (dose: 2.5 mg/kg/injection, schedule: Q01DX009 (ip), vehicle: saline): 0 of 6
T/C (dose: 2.7 mg/kg/injection, schedule: Q04DX003 (ip), vehicle: saline): 133, 140, 145 % of control
T/C (dose: 5.0 mg/kg/injection, schedule: Q01DX009 (ip), vehicle: Klucel (hydroxypropylcellulose) (HPC)): 130 % of control
survivor count [1]: 0 of 6
T/C (dose: 5.9 mg/kg/injection, schedule: Q04DX003 (ip), vehicle: saline): 129 % of control [5 of 6 alive]
T/C (dose: 7.5 mg/kg/injection, schedule: Q04DX003 (ip), vehicle: saline): 145 % of control
survivor count (dose: 9.0 mg/kg/injection, schedule: Q04DX003 (ip), vehicle: saline): 4 of 6
survivor count (dose: 10.0 mg/kg/injection, schedule: Q01DX009 (ip), vehicle: Klucel (hydroxypropylcellulose) (HPC)): 4 of 6
survivor count (dose: 13.0 mg/kg/injection, schedule: Q04DX003 (ip), vehicle: saline): 3 of 6
survivor count (dose: 15.0 mg/kg/injection, schedule: Q01DX009 (ip), vehicle: Klucel (hydroxypropylcellulose) (HPC)): 1 of 6
survivor count (dose: 15.0 mg/kg/injection, schedule: Q04DX003 (ip), vehicle: saline): 3 of 6
survivor count (dose: 30.0 mg/kg/injection, schedule: Q01DX009 (ip), vehicle: Klucel (hydroxypropylcellulose) (HPC)): 0 of 6
survivor count (dose: 30.0 mg/kg/injection, schedule: Q04DX003 (ip), vehicle: saline): 6 of 6

Nc1nc2ncc(CNc3ccc(C(=O)NC(CCC(=O)O)C(=O)O)cn3)nc2c(=O)[nH]1 (configuration not stated)
survivor count [2]: 6 of 6

CC(C)(C)NC(=S)Nc1ccc2c(c1)nc(-c1ccccc1)c1cc(NC(=S)NC(C)(C)C)ccc12
T/C [3]: 125 % of control

CC(C)CCC[C@@H](C)[C@H]1CC[C@H]2[C@@H]3CC[C@H]4C[C@H]5N[C@H]5C[C@]4(C)[C@H]3CC[C@]12C
survivor count (dose: 25.0 mg/kg/injection, schedule: Q01DX001 (ip), vehicle: saline sonified): 6 of 6

COC(=O)[C@@]12OC[C@]34[C@H]([C@@H](O)[C@@H]1O)[C@@]1(C)[C@H](O)C(=O)C=C(C)[C@@H]1C[C@H]3OC(=O)C(OC(C)=O)[C@@H]24 (some centres not stated)
T/C (dose: 125.0 micrograms/kg/injection, schedule: Q01DX009 (ip), vehicle: saline + alcohol): 127 % of control
T/C (dose: 250.0 micrograms/kg/injection, schedule: Q01DX009 (ip), vehicle: saline + alcohol): 131 % of control
T/C (dose: 500.0 micrograms/kg/injection, schedule: Q01DX009 (ip), vehicle: saline + alcohol): 136 % of control [5 of 6 alive]
T/C (dose: 1000.0 micrograms/kg/injection, schedule: Q01DX009 (ip), vehicle: saline + alcohol): 140 % of control [5 of 6 alive]
survivor count (dose: 2000.0 micrograms/kg/injection, schedule: Q01DX009 (ip), vehicle: saline + alcohol): 3 of 6
survivor count (dose: 4000.0 micrograms/kg/injection, schedule: Q01DX009 (ip), vehicle: saline + alcohol): 0 of 6

CCCCC/C(C=C(C#N)C#N)=C/c1ccccc1
T/C [2]: 128 % of control
survivor count [4]: 1 of 6

CCCn1c2nc(=O)n(C)c(=O)c-2[n+]([O-])c2ccccc21
survivor count (dose: 25.0 mg/kg/injection, schedule: Q01DX001 (ip), vehicle: saline with Tween-80): 0 of 6

CN(Nc1c([N+](=O)[O-])cc([N+](=O)[O-])cc1[N+](=O)[O-])c1cccc2ccccc12
survivor count (dose: 100.0 mg/kg/injection, schedule: Q04DX003 (ip), vehicle: Klucel (hydroxypropylcellulose) (HPC)): 6 of 6

CC(=O)CC(=O)NCCCN1CCCCC1
survivor count [2]: 1 of 6
survivor count (dose: 100.0 mg/kg/injection, schedule: Q04DX003 (ip), vehicle: saline with Tween-80): 0 of 6

CSc1nnnn1-c1ccccc1
T/C (dose: 25.0 mg/kg/injection, schedule: Q01DX009 (ip), vehicle: Klucel (hydroxypropylcellulose) (HPC)): 130 % of control

CC(C)CC(NC(=O)CF)C(=O)O (configuration not stated)
T/C [1]: 132 % of control [4 of 6 alive]
survivor count (dose: 10.0 mg/kg/injection, schedule: Q01DX009 (ip), vehicle: saline): 2 of 6

CS(=O)(=O)N(CC(=O)NC(Cc1ccccc1)C(=O)O)Cc1ccccc1 (configuration not stated) (Ms-[Nphe]-[ξF]-OH)
survivor count (dose: 200.0 mg/kg/injection, schedule: Q01DX009 (ip), vehicle: other): 0 of 6
survivor count (dose: 400.0 mg/kg/injection, schedule: Q01DX009 (ip), vehicle: other): 0 of 6

CC1(C)N=C(N)N=C(N)N1c1ccc(CCC(=O)Nc2ccc(S(=O)(=O)F)cc2)cc1
T/C (dose: 3.0 mg/kg/injection, schedule: Q01DX009 (ip), vehicle: saline with Tween-80): 125 % of control
T/C (dose: 6.25 mg/kg/injection, schedule: Q01DX009 (ip), vehicle: saline with Tween-80): 131 % of control
T/C (dose: 100.0 mg/kg/injection, schedule: Q04DX003 (ip), vehicle: saline sonified): 125 % of control
T/C (dose: 200.0 mg/kg/injection, schedule: Q04DX003 (ip), vehicle: saline sonified): 137 % of control
T/C (dose: 400.0 mg/kg/injection, schedule: Q04DX003 (ip), vehicle: saline sonified): 137 % of control

COC(=O)C(CSCSC)NC(=O)/C=C\c1ccccc1 (configuration not stated)
survivor count [3]: 6 of 6

COc1ccc2c(c1)/C(=C/CCN(C)C)c1ccccc1S2
T/C (dose: 25.0 mg/kg/injection, schedule: Q01DX009 (ip), vehicle: saline): 127 and 127 % of control [5 of 6 alive]
T/C (dose: 33.0 mg/kg/injection, schedule: Q04DX003 (ip), vehicle: saline): 131 % of control
survivor count (dose: 50.0 mg/kg/injection, schedule: Q04DX003 (ip), vehicle: saline): 4 of 6
survivor count (dose: 75.0 mg/kg/injection, schedule: Q04DX003 (ip), vehicle: saline): 4 of 6
survivor count (dose: 100.0 mg/kg/injection, schedule: Q04DX003 (ip), vehicle: saline): 4 of 6
survivor count (dose: 200.0 mg/kg/injection, schedule: Q04DX003 (ip), vehicle: saline): 0 of 6
survivor count [5]: 0 of 6

O=c1cc(-c2cccs2)ss1
survivor count [4]: 6 of 6
survivor count (dose: 300.0 mg/kg/injection, schedule: Q01DX009 (ip), vehicle: saline with Tween-80): 6 of 6
survivor count (dose: 400.0 mg/kg/injection, schedule: Q01DX009 (ip), vehicle: saline with Tween-80): 2 of 6
survivor count [3]: 3 of 6

C#CCSc1ncnc2nc[nH]c12
survivor count [5]: 0 of 6

c1ccc2c(c1)OP(OP1Oc3ccccc3O1)O2
survivor count (dose: 150.0 mg/kg/injection, schedule: Q01DX009 (ip), vehicle: saline with Tween-80): 4 of 6
survivor count (dose: 225.0 mg/kg/injection, schedule: Q01DX009 (ip), vehicle: saline with Tween-80): 0 of 6
survivor count (dose: 225.0 mg/kg/injection, schedule: Q04DX003 (ip), vehicle: saline): 5 of 6
survivor count (dose: 335.0 mg/kg/injection, schedule: Q01DX009 (ip), vehicle: saline with Tween-80): 0 of 6
survivor count (dose: 335.0 mg/kg/injection, schedule: Q04DX003 (ip), vehicle: saline): 2 of 6

CC(C)(C)C1Sc2nc3ccccc3n2C1=O (configuration not stated)
survivor count (dose: 50.0 mg/kg/injection, schedule: Q01DX009 (ip), vehicle: Klucel (hydroxypropylcellulose) (HPC)): 3 of 6

O=c1ccc2cc(Cl)ccc2[nH]1
survivor count (dose: 200.0 mg/kg/injection, schedule: Q01DX001 (ip), vehicle: saline with Tween-80): 3 of 6

Cn1cnc([N+](=O)[O-])c1S(N)(=O)=O
T/C (dose: 12.5 mg/kg/injection, schedule: Q01DX009 (ip), vehicle: saline with Tween-80): 132 % of control
T/C (dose: 25.0 mg/kg/injection, schedule: Q01DX009 (ip), vehicle: saline with Tween-80): 144 % of control
T/C [2]: 135 % of control
T/C (dose: 100.0 mg/kg/injection, schedule: Q01DX009 (ip), vehicle: saline with Tween-80): 144 % of control
